Source: the supplement of paper PMC10849652
The other results are listed elsewhere or left out.

Chains of the proteins cited; added tags and fusions are not shown. Lines headed by an entry give the natural chain unless they say otherwise; changes in a name come on top.
UniProt P30260, whole entry, looked up: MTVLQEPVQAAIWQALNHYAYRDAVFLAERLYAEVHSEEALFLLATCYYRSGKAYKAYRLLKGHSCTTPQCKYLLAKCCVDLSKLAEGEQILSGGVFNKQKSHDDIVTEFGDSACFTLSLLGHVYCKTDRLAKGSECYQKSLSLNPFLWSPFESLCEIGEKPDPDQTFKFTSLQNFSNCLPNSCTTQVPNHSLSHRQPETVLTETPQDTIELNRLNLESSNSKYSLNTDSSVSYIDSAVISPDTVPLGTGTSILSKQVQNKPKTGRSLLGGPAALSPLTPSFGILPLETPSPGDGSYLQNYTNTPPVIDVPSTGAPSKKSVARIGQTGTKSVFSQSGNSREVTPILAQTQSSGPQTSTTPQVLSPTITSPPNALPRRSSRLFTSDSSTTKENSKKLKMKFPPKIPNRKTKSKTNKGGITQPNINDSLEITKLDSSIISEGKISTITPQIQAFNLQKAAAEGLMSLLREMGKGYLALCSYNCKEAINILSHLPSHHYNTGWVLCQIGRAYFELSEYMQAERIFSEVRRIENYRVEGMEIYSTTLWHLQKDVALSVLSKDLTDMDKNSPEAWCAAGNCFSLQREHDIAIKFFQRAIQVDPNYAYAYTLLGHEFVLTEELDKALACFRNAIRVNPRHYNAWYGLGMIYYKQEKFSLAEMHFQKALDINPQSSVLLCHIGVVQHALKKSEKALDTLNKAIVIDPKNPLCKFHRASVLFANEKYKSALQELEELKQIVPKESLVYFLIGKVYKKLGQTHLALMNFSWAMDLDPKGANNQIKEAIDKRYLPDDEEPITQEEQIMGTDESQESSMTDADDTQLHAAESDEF
UniProt Q9BRT8: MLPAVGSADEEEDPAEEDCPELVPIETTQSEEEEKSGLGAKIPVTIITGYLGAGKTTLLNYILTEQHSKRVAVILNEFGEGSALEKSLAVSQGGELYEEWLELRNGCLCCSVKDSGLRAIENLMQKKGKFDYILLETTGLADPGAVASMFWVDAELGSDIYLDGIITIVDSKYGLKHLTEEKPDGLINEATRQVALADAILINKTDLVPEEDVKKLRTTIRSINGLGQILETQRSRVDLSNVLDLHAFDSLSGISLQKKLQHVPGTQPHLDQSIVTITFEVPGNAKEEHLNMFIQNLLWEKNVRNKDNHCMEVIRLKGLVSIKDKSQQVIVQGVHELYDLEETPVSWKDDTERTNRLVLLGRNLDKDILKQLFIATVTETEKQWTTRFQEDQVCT
UniProt Q9GZT6: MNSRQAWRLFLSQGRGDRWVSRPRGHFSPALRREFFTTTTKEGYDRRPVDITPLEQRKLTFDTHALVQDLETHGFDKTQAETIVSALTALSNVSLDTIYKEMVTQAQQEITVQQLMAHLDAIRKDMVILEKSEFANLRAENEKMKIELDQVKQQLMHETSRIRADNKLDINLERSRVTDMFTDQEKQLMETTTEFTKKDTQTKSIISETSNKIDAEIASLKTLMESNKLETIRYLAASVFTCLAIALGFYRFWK
UniProt Q9UJX2, whole entry, looked up: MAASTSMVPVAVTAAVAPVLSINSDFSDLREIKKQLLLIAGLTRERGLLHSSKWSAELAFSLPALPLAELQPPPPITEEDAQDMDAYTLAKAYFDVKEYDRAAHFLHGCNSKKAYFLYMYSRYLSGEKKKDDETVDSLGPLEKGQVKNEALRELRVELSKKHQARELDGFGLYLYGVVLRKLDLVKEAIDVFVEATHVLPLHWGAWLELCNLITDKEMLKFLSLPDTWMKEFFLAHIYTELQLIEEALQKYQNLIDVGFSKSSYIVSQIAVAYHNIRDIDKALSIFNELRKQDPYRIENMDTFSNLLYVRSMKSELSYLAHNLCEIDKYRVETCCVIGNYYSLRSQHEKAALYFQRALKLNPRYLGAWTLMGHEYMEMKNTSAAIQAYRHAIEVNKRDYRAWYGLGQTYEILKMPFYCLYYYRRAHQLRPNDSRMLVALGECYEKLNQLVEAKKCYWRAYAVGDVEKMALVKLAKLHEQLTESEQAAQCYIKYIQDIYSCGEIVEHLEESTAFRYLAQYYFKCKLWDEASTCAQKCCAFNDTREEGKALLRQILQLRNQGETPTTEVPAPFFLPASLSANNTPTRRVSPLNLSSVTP
UniProt P50991: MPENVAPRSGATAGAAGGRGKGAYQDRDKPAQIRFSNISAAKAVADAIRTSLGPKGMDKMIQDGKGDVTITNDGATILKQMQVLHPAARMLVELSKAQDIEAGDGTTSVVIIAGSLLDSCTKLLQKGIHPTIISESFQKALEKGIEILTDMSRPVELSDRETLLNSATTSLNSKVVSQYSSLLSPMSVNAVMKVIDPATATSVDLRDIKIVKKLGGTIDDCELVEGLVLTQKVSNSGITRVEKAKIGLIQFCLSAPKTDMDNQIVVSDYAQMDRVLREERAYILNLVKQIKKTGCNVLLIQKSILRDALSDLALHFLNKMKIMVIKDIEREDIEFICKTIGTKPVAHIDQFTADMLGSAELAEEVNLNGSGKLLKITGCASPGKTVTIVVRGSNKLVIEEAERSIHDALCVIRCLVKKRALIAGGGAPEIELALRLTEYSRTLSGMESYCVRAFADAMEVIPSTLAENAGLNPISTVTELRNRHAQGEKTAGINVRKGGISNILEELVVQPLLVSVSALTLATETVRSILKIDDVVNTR
UniProt P0C221: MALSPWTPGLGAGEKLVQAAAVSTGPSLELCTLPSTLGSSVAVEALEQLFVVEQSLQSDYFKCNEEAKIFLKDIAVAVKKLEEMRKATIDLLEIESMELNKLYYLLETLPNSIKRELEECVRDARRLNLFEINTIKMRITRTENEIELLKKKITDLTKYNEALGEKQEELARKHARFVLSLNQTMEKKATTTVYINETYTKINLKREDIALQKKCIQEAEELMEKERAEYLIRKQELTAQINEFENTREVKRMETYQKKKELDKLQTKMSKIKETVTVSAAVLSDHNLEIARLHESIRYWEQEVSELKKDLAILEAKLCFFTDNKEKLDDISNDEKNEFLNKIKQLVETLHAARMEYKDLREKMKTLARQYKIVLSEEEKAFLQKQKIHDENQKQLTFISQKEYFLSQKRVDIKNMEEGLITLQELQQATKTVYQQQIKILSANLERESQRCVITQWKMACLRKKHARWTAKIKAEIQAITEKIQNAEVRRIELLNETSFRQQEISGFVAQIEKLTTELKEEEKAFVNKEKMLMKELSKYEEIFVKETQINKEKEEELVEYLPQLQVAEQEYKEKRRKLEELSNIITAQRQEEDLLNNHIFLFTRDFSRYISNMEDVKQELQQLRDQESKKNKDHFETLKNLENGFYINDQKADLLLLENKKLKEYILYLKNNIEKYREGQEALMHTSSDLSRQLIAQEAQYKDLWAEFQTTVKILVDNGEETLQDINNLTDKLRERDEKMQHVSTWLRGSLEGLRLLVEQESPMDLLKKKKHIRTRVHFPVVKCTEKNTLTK
UniProt Q7Z3E2: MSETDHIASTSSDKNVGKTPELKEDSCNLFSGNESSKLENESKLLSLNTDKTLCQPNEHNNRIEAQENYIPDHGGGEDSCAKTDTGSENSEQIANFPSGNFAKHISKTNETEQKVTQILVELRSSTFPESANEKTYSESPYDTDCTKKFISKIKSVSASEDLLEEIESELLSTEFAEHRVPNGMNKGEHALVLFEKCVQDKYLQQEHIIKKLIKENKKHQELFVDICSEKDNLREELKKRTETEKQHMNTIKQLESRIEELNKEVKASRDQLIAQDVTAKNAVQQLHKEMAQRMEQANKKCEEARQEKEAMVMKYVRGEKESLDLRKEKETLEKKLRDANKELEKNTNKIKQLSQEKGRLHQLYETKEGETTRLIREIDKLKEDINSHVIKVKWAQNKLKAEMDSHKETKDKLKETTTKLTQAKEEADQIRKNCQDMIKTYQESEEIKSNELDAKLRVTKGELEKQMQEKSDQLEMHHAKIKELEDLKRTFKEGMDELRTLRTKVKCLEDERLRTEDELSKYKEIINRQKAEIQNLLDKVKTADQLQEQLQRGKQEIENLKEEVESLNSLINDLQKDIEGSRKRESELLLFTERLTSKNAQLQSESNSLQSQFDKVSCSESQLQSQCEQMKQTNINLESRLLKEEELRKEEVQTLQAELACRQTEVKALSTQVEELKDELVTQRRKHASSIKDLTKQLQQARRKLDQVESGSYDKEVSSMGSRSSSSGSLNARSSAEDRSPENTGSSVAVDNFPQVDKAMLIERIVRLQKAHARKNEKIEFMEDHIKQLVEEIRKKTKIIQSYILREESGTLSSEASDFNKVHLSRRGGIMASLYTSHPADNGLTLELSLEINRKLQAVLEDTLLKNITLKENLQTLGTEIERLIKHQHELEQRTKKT
UniProt Q16543: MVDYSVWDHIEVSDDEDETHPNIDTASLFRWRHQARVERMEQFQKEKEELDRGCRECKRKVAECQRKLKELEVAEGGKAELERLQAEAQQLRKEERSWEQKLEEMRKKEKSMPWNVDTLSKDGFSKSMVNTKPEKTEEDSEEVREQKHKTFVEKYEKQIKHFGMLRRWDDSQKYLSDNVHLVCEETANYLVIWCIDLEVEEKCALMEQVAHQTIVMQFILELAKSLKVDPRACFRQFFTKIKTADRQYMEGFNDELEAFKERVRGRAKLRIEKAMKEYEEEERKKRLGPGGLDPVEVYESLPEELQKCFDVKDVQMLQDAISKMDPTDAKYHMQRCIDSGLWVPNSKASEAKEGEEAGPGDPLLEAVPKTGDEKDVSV
UniProt Q6PK04: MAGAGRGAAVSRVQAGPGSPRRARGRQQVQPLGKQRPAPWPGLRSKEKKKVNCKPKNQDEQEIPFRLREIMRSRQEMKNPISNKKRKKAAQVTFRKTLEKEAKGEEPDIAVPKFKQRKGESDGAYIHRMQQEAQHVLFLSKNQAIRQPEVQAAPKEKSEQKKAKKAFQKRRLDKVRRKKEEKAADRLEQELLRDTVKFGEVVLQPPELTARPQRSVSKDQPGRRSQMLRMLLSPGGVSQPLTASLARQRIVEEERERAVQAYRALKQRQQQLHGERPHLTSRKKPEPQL
UniProt Q96CT7: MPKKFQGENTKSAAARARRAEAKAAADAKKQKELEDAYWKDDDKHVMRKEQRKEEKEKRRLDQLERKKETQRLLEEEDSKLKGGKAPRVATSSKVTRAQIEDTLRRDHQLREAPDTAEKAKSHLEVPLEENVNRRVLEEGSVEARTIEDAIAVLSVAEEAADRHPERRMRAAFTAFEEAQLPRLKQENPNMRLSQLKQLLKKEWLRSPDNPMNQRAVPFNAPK
UniProt Q96MW1: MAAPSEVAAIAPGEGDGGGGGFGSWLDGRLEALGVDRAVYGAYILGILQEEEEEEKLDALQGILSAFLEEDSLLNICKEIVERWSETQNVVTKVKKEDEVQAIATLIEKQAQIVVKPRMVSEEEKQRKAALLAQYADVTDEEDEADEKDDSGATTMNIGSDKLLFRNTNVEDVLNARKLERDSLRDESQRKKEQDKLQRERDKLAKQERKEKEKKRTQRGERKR
UniProt Q9H6E4: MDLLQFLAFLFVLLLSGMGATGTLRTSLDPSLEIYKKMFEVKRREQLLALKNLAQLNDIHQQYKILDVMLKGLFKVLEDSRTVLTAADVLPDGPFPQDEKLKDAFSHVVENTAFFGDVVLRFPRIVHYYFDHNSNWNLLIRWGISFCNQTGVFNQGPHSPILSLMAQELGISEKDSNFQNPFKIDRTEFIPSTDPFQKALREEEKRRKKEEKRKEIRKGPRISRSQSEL
UniProt Q75N03: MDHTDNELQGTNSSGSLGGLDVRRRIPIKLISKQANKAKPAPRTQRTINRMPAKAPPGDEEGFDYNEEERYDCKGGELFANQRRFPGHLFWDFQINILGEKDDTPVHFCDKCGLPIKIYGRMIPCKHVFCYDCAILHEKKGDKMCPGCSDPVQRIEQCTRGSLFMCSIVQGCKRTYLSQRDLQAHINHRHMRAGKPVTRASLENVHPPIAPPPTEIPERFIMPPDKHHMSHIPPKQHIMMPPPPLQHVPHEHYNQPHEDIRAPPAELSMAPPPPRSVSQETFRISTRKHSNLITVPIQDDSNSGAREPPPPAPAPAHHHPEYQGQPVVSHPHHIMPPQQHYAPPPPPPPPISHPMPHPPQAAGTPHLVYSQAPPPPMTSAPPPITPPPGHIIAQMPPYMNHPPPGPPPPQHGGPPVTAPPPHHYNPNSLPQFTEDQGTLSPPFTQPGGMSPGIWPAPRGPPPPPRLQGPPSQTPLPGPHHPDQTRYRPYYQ
UniProt Q8WUD4: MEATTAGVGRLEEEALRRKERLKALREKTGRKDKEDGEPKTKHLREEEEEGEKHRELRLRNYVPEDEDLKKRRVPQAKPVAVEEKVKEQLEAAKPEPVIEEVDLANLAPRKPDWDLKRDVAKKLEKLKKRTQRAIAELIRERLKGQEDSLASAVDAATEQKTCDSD
UniProt P55212: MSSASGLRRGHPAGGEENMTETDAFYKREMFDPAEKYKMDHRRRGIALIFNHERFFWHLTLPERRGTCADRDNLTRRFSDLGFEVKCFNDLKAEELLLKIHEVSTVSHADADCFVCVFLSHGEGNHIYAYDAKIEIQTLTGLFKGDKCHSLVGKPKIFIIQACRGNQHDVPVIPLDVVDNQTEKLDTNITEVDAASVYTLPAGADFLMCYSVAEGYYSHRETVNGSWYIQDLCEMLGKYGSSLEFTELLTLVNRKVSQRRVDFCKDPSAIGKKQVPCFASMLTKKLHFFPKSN

Each target was assayed with c1cn2cc(-c3ccc4cn[nH]c4c3)nc(Nc3ccc(N4CCOCC4)cc3)c2n1 [entospletinib] (assay: log2 fold change, soluble protein after heating vs DMSO (PISA); higher = thermal stabilisation; K562 cells, 10 uM, 30 min; active = over 0.2 and 3.5 SD of the protein, either way, in both replicates (recomputed)).
Outline: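 Thermal stability values are relative to control samples and come from duplicates. They are expressed as log2 fold changes. For measurement, K562 cells (2×10^6 cells/mL) received 10 μM compound for 30 min, and aliquots were heated for 3 min over 48°C-58°C, pooled, and extracted at 4°C in PBS with 0.5% NP-40. Soluble protein, the supernatant after 21,000xg for 90 min, was quantified by TMTpro 16plex LC-MS/MS with equalised channel sums.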

log2 fold change, inactive:
CDC27 isoform 2 (UniProt P30260) -0.006
CBWD1 (UniProt Q9BRT8) -0.213
CD320 (UniProt Q9NPF0) 0.041
CCDC90B (UniProt Q9GZT6) 0.037
CDC23 (UniProt Q9UJX2) 0.059
CCT4 (UniProt P50991) -0.062
CAVIN2 (UniProt O95810) 0.07
CCDC175 (UniProt P0C221) -0.014
CDC40 (UniProt O60508) 0.188
CCDC186 (UniProt Q7Z3E2) 0.015
CDC37 (UniProt Q16543) -0.016
CCT8 (UniProt P50990) -0.071
CCDC174 (UniProt Q6PII3) 0.061
CBLB (UniProt Q13191) -0.015
CCDC137 (UniProt Q6PK04) 0.027
CCNA2 (UniProt P20248) 0.002
CBFB isoform 2 (UniProt Q13951) 0.026
CCDC124 (UniProt Q96CT7) -0.02
CCT7 (UniProt Q99832) -0.063
CCDC115 (UniProt Q96NT0) -0.01
CD80 (UniProt P33681) -0.161
CCT3 (UniProt P49368) -0.004
CCDC43 (UniProt Q96MW1) -0.056
CCDC134 (UniProt Q9H6E4) -0.016
CCDC50 (UniProt Q8IVM0) 0.009
CBLL1 (UniProt Q75N03) 0
CCDC102A (UniProt Q96A19) 0.077
CCDC117 (UniProt Q8IWD4) 0.055
CCDC12 (UniProt Q8WUD4) 0.039
CASP6 (UniProt P55212) -0.027

Nothing new here: an excerpt of the list.
log2 fold change, inactive:
CCDC186 (UniProt Q7Z3E2) 0.015
CDC37 (UniProt Q16543) -0.016
